According to PubChem BioAssay AID2685 (National Center for Advancing Translational Sciences (NCATS), 2010):
This is one part of the list. The main result of the screen is listed elsewhere. These columns were measured beside it and carry no call. Most of these compounds were active or inconclusive in the main read-out, so they are no random draw. Potencies come from curve fits of mixed quality, noted in brackets.

Assay: qHTS Assay for Lipid Storage Modulators in Drosophila S3 Cells;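 as to cell number change: cells counted by Cell Tracker Red CMTPX staining in the red channel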
Conditions: BODIPY lipid droplet fluorescence, 18-24 h; for cell number change: measured here: cell count max response, cells fed with added oleic acid
How it was run: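 Drosophila S3 cells got compounds at several concentrations plus oleic acid (400 uM solution). Laser-scanning cytometry with 488 nm excitation read lipid droplets at 500-530 nm and cells at 575-640 nm. Percent activity was relative to 20 uM Triacsin C.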

[1] = measured here: lipid fluorescence (Fed channel) AC50, cells fed with added oleic acid
[2] = measured here: cell number channel AC50, cells fed with added oleic acid

SMILES	cell number change [%]	AC50 [1]	AC50 [2]
Cc1ccc(S(=O)(=O)N2C(=S)SCC2(C)C)cc1	-12.1	3.66 µM [falling, full curve, poor fit]	–
CCN(CC)C(=O)c1sc2nc(-c3ccccc3)ccc2c1N	22.4	1.84 µM [rising, partial curve]	1.84 µM [rising, partial curve, poor fit]
CN(Cc1cccc(Cl)c1Cl)CC(O)COc1ccccc1 (centres undefined)	-53.3	32.6 µM [falling, single point]	32.6 µM [falling, partial curve]
COc1ccc(OCCC(=O)NC2CCCCC2)cc1	43.4	–	29.1 µM [rising, single point]
COc1ccc(CCNC(=O)CNCCc2ccc(F)cc2)cc1	24.8	18.4 µM [rising, single point]	–
Cc1ccc2cc(CCNC(=O)CC(C)C)c(=O)[nH]c2c1	5.8	0.164 µM [rising, full curve, poor fit]	–
COc1ccc(CN(C(=O)c2cc(=O)c3ccccc3o2)C2CCS(=O)(=O)C2)cc1OC (centres undefined)	20.3	–	–
Cc1ccc(NC(=O)Nc2ccc(Cl)c(Cl)c2)nc1	-1.39	6.51 µM [falling, partial curve, poor fit]	–
Cc1ccc([C@@H]2[C@@H]3C(=O)N(c4ccccc4)C(=O)[C@@H]3[C@]3(C)C(=O)N(Cc4ccccn4)CC(=O)N23)o1	-2.99	–	–
COc1ccccc1CN(Cc1nc2ccccc2c(=O)[nH]1)C(=O)Nc1ccccc1	–	–	2.31 µM [rising, partial curve]
Cc1cccc(-n2c(C)nc3c(cnn3-c3ccc(F)cc3)c2=O)c1	-24.3	0.326 µM [falling, full curve]	0.00517 µM [falling, full curve, poor fit]
CC1CCN(S(=O)(=O)N2CCC(C(=O)NCc3ccc4c(c3)OCO4)CC2)CC1	30.9	6.51 µM [rising, full curve]	–
Cc1nnc(SCC(=O)Nn2cnnc2)s1	7.23	–	–
CCN1CCN(C(=S)c2ccc(SC)cc2)CC1	12.1	25.9 µM [rising, single point]	–
Cc1c(C(=O)N(C)CCOc2ccccc2)oc2c(Cl)cccc12	26.7	23.1 µM [rising, single point]	–
CCOc1cc(/C=C2\NC(=S)N(c3c(C)n(C)n(-c4ccccc4)c3=O)C2=O)ccc1O	25.1	–	–
CC(=O)N(CN1C(=O)c2ccccc2C1=O)c1ccccc1	3.76	0.82 µM [falling, single point]	–
C=CCn1c(CNC(=O)c2cccs2)nnc1SCC(=O)c1ccc(Br)cc1	11.4	–	–
CC(Sc1nc(N)cc(=O)[nH]1)C(=O)Nc1nc2c(s1)CCCC2 (centres undefined)	1.28	6.51 µM [rising, single point]	–
O=C(Nc1nc2c(s1)CCCC2)c1ccc(Br)o1	13.3	–	4.61 µM [falling, single point]
Cc1cccc(C(=O)NCC(=O)OCC(=O)NC2CCCCCCC2)c1	-8.75	–	–
O=C1CCc2cc(S(=O)(=O)Nc3ccccc3F)ccc2N1	-23	6.51 µM [falling, single point]	1.84 µM [falling, partial curve]
CCCNC(=O)C12CCC(C)(c3nc4cc(C)c(C)cc4nc31)C2(C)C (centres undefined)	–	–	3.66 µM [rising, partial curve]
O=C(Nc1nnc(SCc2ccc(F)cc2)s1)c1ccco1	-4.29	6.51 µM [falling, single point]	–
COC(C(=O)Nc1ccnn1C1CCN(Cc2cnn(C(C)C)c2)CC1)c1ccccc1 (centres undefined)	36.3	29.1 µM [rising, single point]	29.1 µM [rising, single point]
NS(=O)(=O)c1ccc(CCN2C(=O)/C(=C\c3ccc(Cl)cc3)SC2=S)cc1	-38	16.4 µM [falling, single point]	–
O=[N+]([O-])c1cc(CN2CCC(O)CC2)ccc1Cl	-53.8	0.58 µM [falling, partial curve]	0.259 µM [falling, full curve]
O=C1C(Cc2ccccc2)Nc2ncnc(N3CCc4ccccc4C3)c2N1Cc1ccc(Br)cc1 (centres undefined)	14.1	6.51 µM [falling, single point]	6.51 µM [falling, single point]
COC(=O)c1ccccc1NC(=O)Cn1cnc2ccc(S(=O)(=O)N3CCC(C)CC3)cc2c1=O	8.31	0.146 µM [rising, full curve, poor fit]	–
COc1ccc(NC(=O)CN(C)CC(=O)Nc2ccc(Cl)c(S(=O)(=O)N(C)C)c2)cc1	-17.5	6.51 µM [rising, single point]	–

Looked up above.
Cc1ccc(NC(=O)Nc2ccc(Cl)c(Cl)c2)nc1 | AC50 [1]: 6.51 µM [falling, partial curve, poor fit]
COc1ccc(OCCC(=O)NC2CCCCC2)cc1 | cell number change [%]: 43.4
